Measured values reported in article PMC11625335.
Results are given in words; binding and its absence hold for the method and conditions named. Binding seen in cells or lysates may run through a third protein. Some entries that bind do so weakly or less than the wild type.

Sequences of proteins named here, by UniProt entry; tags and fusion partners are left off.
UniProt Q9VTP4: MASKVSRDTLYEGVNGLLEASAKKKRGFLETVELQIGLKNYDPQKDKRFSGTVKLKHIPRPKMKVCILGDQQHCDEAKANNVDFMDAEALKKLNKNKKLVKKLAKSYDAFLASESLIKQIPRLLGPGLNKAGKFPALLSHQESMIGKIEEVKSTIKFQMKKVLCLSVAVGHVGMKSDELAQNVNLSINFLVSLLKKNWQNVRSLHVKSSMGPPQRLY
UniProt P29327: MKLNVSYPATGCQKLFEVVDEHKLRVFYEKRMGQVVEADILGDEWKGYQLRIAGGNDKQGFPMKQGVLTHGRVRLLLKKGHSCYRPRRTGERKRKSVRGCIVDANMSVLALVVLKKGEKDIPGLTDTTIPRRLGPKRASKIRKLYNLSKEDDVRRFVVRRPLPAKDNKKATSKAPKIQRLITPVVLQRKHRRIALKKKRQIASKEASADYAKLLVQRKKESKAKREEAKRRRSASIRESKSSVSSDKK
UniProt P50882: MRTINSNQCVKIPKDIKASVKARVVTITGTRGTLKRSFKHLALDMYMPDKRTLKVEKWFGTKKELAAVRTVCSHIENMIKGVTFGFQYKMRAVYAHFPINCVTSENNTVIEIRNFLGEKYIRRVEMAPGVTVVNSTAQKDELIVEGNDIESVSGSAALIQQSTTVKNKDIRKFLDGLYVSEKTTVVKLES

What was measured:
[1] = target: T1, Drosophila Clueless (Clu) (Drosophila (endogenous in adult flies and S2R+ cells)) (UniProt A1ZAB5); assay: co-IP; anti-Clu IP from WT fly extract, with and without RNase A; Western blot
T1 sequence: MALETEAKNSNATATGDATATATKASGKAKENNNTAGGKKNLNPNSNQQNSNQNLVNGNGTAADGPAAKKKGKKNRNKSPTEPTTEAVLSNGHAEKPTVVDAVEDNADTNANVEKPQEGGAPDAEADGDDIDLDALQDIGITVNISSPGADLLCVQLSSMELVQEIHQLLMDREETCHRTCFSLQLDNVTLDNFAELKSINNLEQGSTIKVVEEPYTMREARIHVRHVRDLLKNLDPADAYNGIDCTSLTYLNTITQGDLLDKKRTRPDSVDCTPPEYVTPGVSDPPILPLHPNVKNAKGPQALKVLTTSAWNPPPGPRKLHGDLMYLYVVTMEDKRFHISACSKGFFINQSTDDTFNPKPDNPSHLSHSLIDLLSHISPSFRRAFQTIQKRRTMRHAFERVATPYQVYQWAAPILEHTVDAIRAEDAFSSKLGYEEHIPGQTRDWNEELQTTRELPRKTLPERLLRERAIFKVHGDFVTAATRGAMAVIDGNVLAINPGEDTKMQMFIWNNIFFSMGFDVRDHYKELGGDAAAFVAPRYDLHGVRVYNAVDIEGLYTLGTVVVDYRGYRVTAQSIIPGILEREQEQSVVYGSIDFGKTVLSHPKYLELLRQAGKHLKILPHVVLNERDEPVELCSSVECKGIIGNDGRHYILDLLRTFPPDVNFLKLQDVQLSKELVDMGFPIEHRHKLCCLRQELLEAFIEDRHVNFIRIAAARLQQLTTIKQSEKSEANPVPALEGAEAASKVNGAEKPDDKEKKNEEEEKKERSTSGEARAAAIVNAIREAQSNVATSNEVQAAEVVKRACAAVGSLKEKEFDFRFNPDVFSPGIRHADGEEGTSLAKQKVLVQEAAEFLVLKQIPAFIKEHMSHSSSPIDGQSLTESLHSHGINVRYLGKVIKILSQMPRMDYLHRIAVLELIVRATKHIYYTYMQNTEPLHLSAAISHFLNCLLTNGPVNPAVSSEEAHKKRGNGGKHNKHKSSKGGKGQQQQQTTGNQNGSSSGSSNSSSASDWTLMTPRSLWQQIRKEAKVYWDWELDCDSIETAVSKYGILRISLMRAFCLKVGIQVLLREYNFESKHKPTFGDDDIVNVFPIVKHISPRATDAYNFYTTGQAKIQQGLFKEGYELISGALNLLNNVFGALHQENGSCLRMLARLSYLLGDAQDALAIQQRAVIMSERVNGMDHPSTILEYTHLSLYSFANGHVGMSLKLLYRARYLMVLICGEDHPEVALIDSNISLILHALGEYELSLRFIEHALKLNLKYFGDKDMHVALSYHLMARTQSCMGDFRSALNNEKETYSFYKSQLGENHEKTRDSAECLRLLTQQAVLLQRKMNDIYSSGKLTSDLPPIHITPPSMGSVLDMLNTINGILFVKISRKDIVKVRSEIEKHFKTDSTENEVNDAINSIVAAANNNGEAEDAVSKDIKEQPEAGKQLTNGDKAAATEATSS

[2] = target: RpL10Ab fused with GFP at the endogenous locus (Drosophila (endogenous locus in the fly stock)) (UniProt Q9VTP4); assay: co-IP; anti-GFP IP from extract of the RpL10Ab::GFP trap fly stock, with and without RNase A; Western blot

RpS15Aa (from UniProt P48149 1-130)
binding [1]: binds

RpS6 (from UniProt P29327 1-248)
binding [1]: binds

RpL9 (from UniProt P50882 1-190)
binding [1]: binds

B1: Drosophila Clueless (Clu) (protein, UniProt A1ZAB5 1-1448)
chain: MALETEAKNSNATATGDATATATKASGKAKENNNTAGGKKNLNPNSNQQNSNQNLVNGNGTAADGPAAKKKGKKNRNKSPTEPTTEAVLSNGHAEKPTVVDAVEDNADTNANVEKPQEGGAPDAEADGDDIDLDALQDIGITVNISSPGADLLCVQLSSMELVQEIHQLLMDREETCHRTCFSLQLDNVTLDNFAELKSINNLEQGSTIKVVEEPYTMREARIHVRHVRDLLKNLDPADAYNGIDCTSLTYLNTITQGDLLDKKRTRPDSVDCTPPEYVTPGVSDPPILPLHPNVKNAKGPQALKVLTTSAWNPPPGPRKLHGDLMYLYVVTMEDKRFHISACSKGFFINQSTDDTFNPKPDNPSHLSHSLIDLLSHISPSFRRAFQTIQKRRTMRHAFERVATPYQVYQWAAPILEHTVDAIRAEDAFSSKLGYEEHIPGQTRDWNEELQTTRELPRKTLPERLLRERAIFKVHGDFVTAATRGAMAVIDGNVLAINPGEDTKMQMFIWNNIFFSMGFDVRDHYKELGGDAAAFVAPRYDLHGVRVYNAVDIEGLYTLGTVVVDYRGYRVTAQSIIPGILEREQEQSVVYGSIDFGKTVLSHPKYLELLRQAGKHLKILPHVVLNERDEPVELCSSVECKGIIGNDGRHYILDLLRTFPPDVNFLKLQDVQLSKELVDMGFPIEHRHKLCCLRQELLEAFIEDRHVNFIRIAAARLQQLTTIKQSEKSEANPVPALEGAEAASKVNGAEKPDDKEKKNEEEEKKERSTSGEARAAAIVNAIREAQSNVATSNEVQAAEVVKRACAAVGSLKEKEFDFRFNPDVFSPGIRHADGEEGTSLAKQKVLVQEAAEFLVLKQIPAFIKEHMSHSSSPIDGQSLTESLHSHGINVRYLGKVIKILSQMPRMDYLHRIAVLELIVRATKHIYYTYMQNTEPLHLSAAISHFLNCLLTNGPVNPAVSSEEAHKKRGNGGKHNKHKSSKGGKGQQQQQTTGNQNGSSSGSSNSSSASDWTLMTPRSLWQQIRKEAKVYWDWELDCDSIETAVSKYGILRISLMRAFCLKVGIQVLLREYNFESKHKPTFGDDDIVNVFPIVKHISPRATDAYNFYTTGQAKIQQGLFKEGYELISGALNLLNNVFGALHQENGSCLRMLARLSYLLGDAQDALAIQQRAVIMSERVNGMDHPSTILEYTHLSLYSFANGHVGMSLKLLYRARYLMVLICGEDHPEVALIDSNISLILHALGEYELSLRFIEHALKLNLKYFGDKDMHVALSYHLMARTQSCMGDFRSALNNEKETYSFYKSQLGENHEKTRDSAECLRLLTQQAVLLQRKMNDIYSSGKLTSDLPPIHITPPSMGSVLDMLNTINGILFVKISRKDIVKVRSEIEKHFKTDSTENEVNDAINSIVAAANNNGEAEDAVSKDIKEQPEAGKQLTNGDKAAATEATSS
binding [2]: binds
